No constants are given. Whether binding was seen depends on the method and setting. For some of these results: In cells and extracts the contact can be indirect. For some of these results: A result given as binding can be weak or reduced; the word gives no strength. Where a sequence is shown, tags or fusion partners need not be part of it.

Experiment [1] addresses T1, His-σ^32 (E. coli heat shock factor σ^32, RpoH) (E. coli C600) (UniProt P0AGB3).
T1 sequence: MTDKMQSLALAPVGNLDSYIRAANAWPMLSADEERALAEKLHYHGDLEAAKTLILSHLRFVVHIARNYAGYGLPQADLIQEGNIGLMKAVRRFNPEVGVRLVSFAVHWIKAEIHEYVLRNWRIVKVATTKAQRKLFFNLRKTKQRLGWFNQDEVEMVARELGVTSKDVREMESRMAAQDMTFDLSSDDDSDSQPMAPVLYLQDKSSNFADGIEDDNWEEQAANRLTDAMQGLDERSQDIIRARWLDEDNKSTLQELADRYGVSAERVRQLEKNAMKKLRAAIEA
Description: co-IP; purified 6His-BnTR1 and mutant forms (prey) incubated with DnaK or His-σ^32; control without DnaK or His-σ^32; input lane used to adjust the concentration of BnTR1 forms.

The target in experiment [2] is T2, σ^32 (RpoH), bacterial two-hybrid fusion (E. coli) (UniProt P0AGB3).
T2 sequence: T1 sequence
Description: two-hybrid; bacterial two-hybrid system.

As for “BnTR1ΔZn2 (BnTR1 C82S/C84S), purified (Brassica napus) (enzyme)”, the binding entry in experiment [1] is “binds”.
Consider “BnTR1ΔZn1 (BnTR1 C66S/C69S), purified (Brassica napus) (enzyme)”, for which the binding result in experiment [1] was “no binding”.
As to “BnTR1ΔZn1 (BnTR1 C66S/C69S), bacterial two-hybrid fusion (Brassica napus) (enzyme)”, the binding result in experiment [2] was “no binding”.
Consider “6His-BnTR1 (RING domain E3 ligase from Brassica napus), wild type (enzyme)”, for which, in experiment [1], the binding entry is “binds”.

(Values after PMC5481349.)
